The campaign covered roughly 52,000 sequences. About 210 (0.4%) were called active.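 The calls were made as follows: active = gene whose silencing raises cell survival under the drug, median off-target-corrected z-score across its silencing RNAs 2 or more; inactive = the rest.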 This is one part of the list.

The experiment in a line: Resistance to Poly (ADP-Ribose) Polymerase inhibitor: Gene Identification via Genome-wide siRNA Screen. Particulars: mouse BRCA2 R2336H ES cells, olaparib, CellTiter-Glo viability; stronger effect = higher value. Summed up: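 Genome-wide siRNA screen (3 siRNAs/gene, 20 nM) in mouse ES cells carrying hypomorphic BRCA2 R2336H; olaparib 500 nM added 48 h post-transfection, CellTiter-Glo viability 72 h later. Normalized to plate-median negative control; MAD z-scores, gene median, seed-adjusted.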
For orientation: Cellular ATP, detected with luciferase, serves as a proxy for viable cell number.
CGGACAAAUUGGAUGGUUUTT against Nck1: the z-score is inactive: -0.418. To GCUUCUUCUGUGAACUUCCTT against Olfr854 belongs inactive: 0.637. The value for “GACAAGUUCUCAAGUAUCCTT against 1110006O24Rik” was inactive: 0.94; that for CUACCUGUUUCCUAGCUUGTT against Etohi2 was inactive: -0.486; that for GGUUUUCACCAUAUGCAGCTT against Zfp353 was inactive: -0.47. To “GCCUGAAGAGAGUCUUAUCTT against 4930539E08Rik” belongs inactive: -1.39. As for “GGUCAAACACAGUUCAAAGTT against 2010004J24Rik”, the z-score is inactive: 0.134. The value for GCCACCUACUACGACAACATT against Hoxb3 was inactive: 1.07; that for CGGCUUAGUGUAAUUUGCCTT against Diras2 was inactive: -0.136. To GGACCUCAAAGACAGAGAUTT against Armet belongs inactive: -1.61; to “GAAAUGCAAGACUCUGCACTT against 1700020L24Rik”, inactive: -0.283. Take GGUUCUGUGAAUUCUUUAATT against U90926: the z-score is inactive: 0.921.

On to “GCAGACAGCACUAUGUCUUTT against 6430401A05Rik”, for which the z-score was inactive: 0.467.

In the case of “GGUCAAUGUAGCUCCCAUGTT against D630048P19Rik”, the z-score is inactive: 0.446. To GCGAAUUACUAUGUACCUATT against Sqrdl belongs inactive: -1.39. The value for GGCUGGAAAAAAUUUUGUCTT against Sip1 was inactive: 0.199; that for “GGACAUUGCUUUUCACUAUTT against 4930447C04Rik” was inactive: 0.797; that for “GCAUGCUGAUGGACUGUAATT against 2610510H01Rik” was inactive: -0.58. To GCCCUGUACCUUUUAGCUUTT against Olfr704 belongs inactive: -0.715. Consider CCAGGAGUACAAACACUAUTT against AI586015, for which the z-score is inactive: 0.284. With “GGAAAUACUGCUGACCAUUTT against 2410127L17Rik”, the z-score was inactive: 0.33. As to CCUUAAUGGUAAAUCCUCGTT against V1rh4, the z-score is inactive: 0.549.

Turning to “AGUGAAACUAAACUGGAGUTT against 2610318N02Rik”, the z-score was inactive: -0.587. To CCAGGAUCCUGUUUCUGACTT against AF067061 belongs inactive: 0.782; to GCCACUUUACCAAACGACATT against Pglyrp2, inactive: 0.264; to GACGGUGGGACUCACUGUUTT against Ors6, inactive: -0.403. Take GGAUAUAAGGAAAACCAGATT against Rab2: the z-score was inactive: -1.33.

In the case of GGAGGAAGUGUUCUUUUCCTT against Psg17, the z-score was inactive: -0.33. The value for “GGAGAAACUGGCAGACCUUTT against 2900091E11Rik” was inactive: -1.41. The value for GGCCACUCAACUCUGUACUTT against Atxn7l1 was inactive: 3.1; that for “GGCAUAACCAAAAGAAAGUTT against 4933427E11Rik” was inactive: -1.58; that for GGUUGUGUAUGUGGAAAGUTT against Ppp2cz was inactive: -0.618. To GGUGGGAGUAGUGUUUGUGTT against Ly6f belongs inactive: -0.433. Regarding GGGACAAUACAUUGAUAGCTT against V1rh7, the z-score is inactive: -0.359. As for GGAGGGAGACCUUAUCUUATT against Tjp3, the z-score was inactive: 0.954. With CGGCACUGACUUAUUGUUCTT against Olfr574, the z-score is inactive: -0.0658. The value for “GGAGGACUAGGAGUGAUUGTT against 2310009E04Rik” was inactive: -0.544; that for GGCUGAUGUUAACAUUGAATT against Cdkn2c was inactive: -1.29; that for CCACUCCAAGACCUACUCCTT against Large was inactive: 2.22. The value for “GCAGGACAACCAGCUGGUATT against 1110004B13Rik” was inactive: 0.431; that for GGUAGUUCCUAAUAUUACCTT against Tlr4 was inactive: 1.59; that for GCCAGGAUCCAUCAAUUCCTT against Olfr376 was inactive: -0.918. To GGGACAAAUUAACGACAUATT against Angptl3 belongs inactive: 0.292; to GGUAAAAAGGGUGUGUACUTT against Pdzk1, inactive: -1.68. As to GCCUUGAAGAGUCUCAUAUTT against Farp1, the z-score is inactive: -0.245.

GCAAUAUUUUCCCUAGAUCTT against V1rf1: the z-score was inactive: 0.292. To “GCAUGGAGGACUUUGUCACTT against 1190002L16Rik” belongs inactive: -2.08; to “CGACCAGAUGAACUGGUGUTT against 1500002O20Rik”, inactive: 0.483. Consider GGAAACUACUACAAUCAAGTT against Pigl, for which the z-score is inactive: 0.246.

Take CGGAUCACAUUGCAUAAAATT against Calcrl: the z-score was inactive: 0.747.

For the sequence GGCAUGUCCAAGGAAUACUTT against Snrpg, the z-score was inactive: -0.248. The value for “CCGUAUAAGAAGCUUUGUUTT against F730015K02Rik” was inactive: -0.787; that for GUACCUGAACUCAACUGAGTT against Gpr43 was inactive: -2.14; that for CGAAUUCAUACCAGUGUGCTT against Ndufa10 was inactive: -0.486. To GGGCACAACUUCAACAGCUTT against Cklfsf8 belongs inactive: 1.53. Turning to “GGGUUUAGAAAGAUGAAUGTT against E130107N23Rik”, the z-score was inactive: -0.397. To GGUCGGUGUUUUAUCUGCUTT against BC019537 belongs inactive: -1.19; to “GGUCCUACAGUCCAUAGGUTT against B230374F23Rik”, inactive: 0.542; to CCCUCUCUGGGACUACAUATT against Zfp395, inactive: -1.48. For GGCUACUCAGUCCUAAGCATT against Kcns2, the z-score was inactive: -0.384.

Turning to CCGUCAGAAUCAAGCUUUUTT against MGC86034, the z-score is inactive: -1.1. For the sequence GUGUGCUAUGAGCAAUGCCTT against Sprr2a, the z-score was inactive: 1.14. As to GGUAAAUCUCAGCUUUUCUTT against Pcdhga3, the z-score is inactive: 0.868.

Take “GGCAGAUUUAGUUUCUUUUTT against A930026L03Rik”: the z-score was inactive: 1.28. The value for “CGAACAGAUCCGAAAAUCUTT against 4933430J11” was inactive: -0.699. The value for GCGAGUGAUAAGACAGCCATT against LOC208158 was inactive: -0.501; that for CUUACAGCCCUUAUUGGAGTT against Olfr1203 was inactive: 0.0972; that for GGGUGGCAUCAUGCAAAGATT against Hdac8 was inactive: 1.28.

As to GCACCUCUUGGACAAAAUUTT against Tsc1, the z-score was inactive: -0.196. The value for GGAAAAACUCCUUUUCCACTT against Shcbp1 was inactive: 0.251; that for GGUUUAAGAAUGAAGUGGATT against Mtmr3 was inactive: -0.196. The value for GGAAGAAAAGGUAUUUCUUTT against Rpo2tc1 was inactive: -2.74. With GCGACUCCUAUAAUUUCUATT against Rpa3, the z-score is inactive: -0.154. The value for “GGAUGUGACGCACACAUGUTT against 5730403B10Rik” was inactive: -0.0428. In the case of GGAUUUCAAAUCAAGAUGGTT against Tde1, the z-score was inactive: 1.03.

GGCACACACUCCCUGACAATT against Cst3: the z-score is inactive: 0.688. The value for CCUGCUCAACGGAGACCAUTT against Hmx3 was inactive: 0.71; that for AUCGUAUUGCUCUUUUACGTT against Gm1705 was inactive: 0.452. To GGAAGUCACUAAUGAAAUGTT against Tbx19 belongs inactive: 0.719; to GCUGGGAAAUCACACUAAGTT against Olfr1427, inactive: 0.342; to GGUGGCCAAGAAAACAUGUTT against Rims3, inactive: -0.503. As to “GGGCAGAAUCCAUUGACAATT against 2210412K09Rik”, the z-score was inactive: -0.485. Take GGCUUAGUUGGCUAUUACATT against Tbc1d12: the z-score is inactive: -2.07.

As for GGGCCCAUCUUUUUCUACATT against Dpp7, the z-score was inactive: -0.145. To GCCUGAUCUACUGUGGUCCTT against Olfr1347 belongs inactive: 0.259. To GGCUCAGUUAAACUUACUGTT against Pak2 belongs inactive: -0.198; to GCUGAAUGCGACAUUUAUATT against Hk2, inactive: 1.81; to CCUUAAGAUGAGCAUUGCUTT against Chchd5, inactive: -0.116. To GCAUCGCUAAUCCUGAGUUTT against Itgb2 belongs inactive: 0.9. As for GGUUCACCUGGAUUCUGCATT against Sfrs16, the z-score was inactive: -1.62. The value for GGUCUCUAAAUCCUGCUUUTT against V1rc28 was inactive: 0.0164; that for GGCAGAGAAAAGAAGAAGATT against Abcb4 was inactive: -1.54.

As to “GCGAUGGAACUGUACGAGATT against 1810034K20Rik”, the z-score is inactive: 0.046. To GGAUGCAUGGCUCAAUAUUTT against Olfr1164 belongs inactive: -1.53; to GGAGGUCAGUGUGACUUCATT against Taf1c, inactive: -2.82.

With “GGCUCAGAUGUAUUUCAAATT against 2610529C04Rik”, the z-score was inactive: -0.391. The value for GGAUCGUUUCCUCUCAUCATT against Cd4 was inactive: -0.361; that for GCUGUUCUAUCAGACCUUUTT against Cyp2b10 was inactive: 1.07; that for “GGAGUUCCCGCUUACUCUGTT against 9430022A14” was inactive: 0.636.

In the case of GGCAAAAUCGGAGACUUUCTT against Exosc10, the z-score is inactive: 0.0473.

Turning to GGUUGCUAGUGCUAAGGACTT against Pdlim2, the z-score is inactive: -1.8. To “GGAGCAAACUUGCUCAGUUTT against 4922504H04Rik” belongs inactive: -1.78; to GGUUUUGGGCACAGCUGGUTT against Cryz, inactive: 1.79.

The values are drawn from PubChem BioAssay AID1347423 (Functional Genomics Laboratory (NCATS/FGL), 2020).
